The target in this test is Myc-Akt1 (UniProt P31749). Briefly: co-IP; HA-tagged CDKL3 constructs and Myc-Akt1 or Akt1 constructs expressed exogenously; total cell lysate on α-HA-agarose or α-myc-agarose at 4°C overnight; resin washed five times with TBS-T; Western blot; reverse IP also done for the Akt1 mapping. In general terms: Immunoblotting shows a protein as a band on a membrane.

The chains behind the UniProt entries cited, without tags or fusion partners. Residues count along the entry.
UniProt P31749: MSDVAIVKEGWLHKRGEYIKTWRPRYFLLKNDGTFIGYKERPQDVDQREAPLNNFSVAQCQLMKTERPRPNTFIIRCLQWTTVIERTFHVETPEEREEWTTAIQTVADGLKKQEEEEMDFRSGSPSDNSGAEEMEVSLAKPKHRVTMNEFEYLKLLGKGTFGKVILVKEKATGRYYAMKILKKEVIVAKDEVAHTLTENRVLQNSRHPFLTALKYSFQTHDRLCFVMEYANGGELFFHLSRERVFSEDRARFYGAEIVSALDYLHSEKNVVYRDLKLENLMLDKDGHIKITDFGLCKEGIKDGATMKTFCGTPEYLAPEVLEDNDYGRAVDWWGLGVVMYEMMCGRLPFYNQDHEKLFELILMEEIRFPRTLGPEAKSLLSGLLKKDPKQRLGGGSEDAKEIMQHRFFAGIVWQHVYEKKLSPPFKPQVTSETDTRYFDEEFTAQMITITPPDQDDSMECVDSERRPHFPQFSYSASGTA
UniProt Q8IVW4, residues 4-286: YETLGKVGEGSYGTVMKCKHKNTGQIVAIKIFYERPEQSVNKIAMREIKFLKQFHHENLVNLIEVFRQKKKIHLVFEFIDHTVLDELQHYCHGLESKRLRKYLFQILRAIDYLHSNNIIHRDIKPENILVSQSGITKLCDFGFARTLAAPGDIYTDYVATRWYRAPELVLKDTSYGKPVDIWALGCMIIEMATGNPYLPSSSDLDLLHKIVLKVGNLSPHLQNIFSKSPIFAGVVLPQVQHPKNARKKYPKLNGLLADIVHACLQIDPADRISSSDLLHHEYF

Data on one substance can be found in article PMC7119369.

These are yes or no findings as the source states them, for the method shown. In cells and extracts the contact can be indirect. Some results given as binding are weak or reduced against the parent protein; the word gives no strength.

For the substance “HA-CDKL3 K (Kinase domain) (from UniProt Q8IVW4 4-286) (domain or fragment)”, the binding result is “binds”.
